No constants are given. Whether binding was seen depends on the method and setting. Binding seen in cells or lysates may run through a third protein. Some results given as binding are weak or reduced against the parent protein; the word gives no strength.
Target: HIF1α (human (endogenous in MDA-MB-231)) (UniProt Q16665)
Test: co-IP; MDA-MB-231 cell lysate; IP with NCOA1 antibody, HIF1α antibody or non-immune IgG as negative control; Western blot with NCOA1 antibody

By UniProt entry, the sequences of proteins in these tests, tags left out.
UniProt Q16665: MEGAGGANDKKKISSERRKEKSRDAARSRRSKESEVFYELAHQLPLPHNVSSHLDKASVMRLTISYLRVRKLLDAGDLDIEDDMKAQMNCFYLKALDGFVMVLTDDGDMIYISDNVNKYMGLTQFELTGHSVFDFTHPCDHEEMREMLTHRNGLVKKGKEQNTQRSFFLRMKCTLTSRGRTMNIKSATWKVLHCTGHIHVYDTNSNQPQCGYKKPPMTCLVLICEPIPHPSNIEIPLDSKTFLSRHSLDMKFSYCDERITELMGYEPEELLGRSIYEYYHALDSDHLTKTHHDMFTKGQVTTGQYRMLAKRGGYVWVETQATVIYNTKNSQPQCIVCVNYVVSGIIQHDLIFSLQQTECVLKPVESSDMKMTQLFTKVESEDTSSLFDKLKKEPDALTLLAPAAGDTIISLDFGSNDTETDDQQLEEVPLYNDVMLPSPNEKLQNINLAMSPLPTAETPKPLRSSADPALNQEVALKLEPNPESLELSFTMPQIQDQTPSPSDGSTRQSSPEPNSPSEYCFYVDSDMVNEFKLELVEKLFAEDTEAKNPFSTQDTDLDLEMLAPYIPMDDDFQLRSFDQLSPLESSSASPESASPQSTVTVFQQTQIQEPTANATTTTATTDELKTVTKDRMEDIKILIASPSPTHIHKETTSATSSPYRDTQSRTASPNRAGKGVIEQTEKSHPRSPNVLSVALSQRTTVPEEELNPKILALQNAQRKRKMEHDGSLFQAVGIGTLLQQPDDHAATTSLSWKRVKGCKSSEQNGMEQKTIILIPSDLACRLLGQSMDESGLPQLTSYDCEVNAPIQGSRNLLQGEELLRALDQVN
UniProt Q15788: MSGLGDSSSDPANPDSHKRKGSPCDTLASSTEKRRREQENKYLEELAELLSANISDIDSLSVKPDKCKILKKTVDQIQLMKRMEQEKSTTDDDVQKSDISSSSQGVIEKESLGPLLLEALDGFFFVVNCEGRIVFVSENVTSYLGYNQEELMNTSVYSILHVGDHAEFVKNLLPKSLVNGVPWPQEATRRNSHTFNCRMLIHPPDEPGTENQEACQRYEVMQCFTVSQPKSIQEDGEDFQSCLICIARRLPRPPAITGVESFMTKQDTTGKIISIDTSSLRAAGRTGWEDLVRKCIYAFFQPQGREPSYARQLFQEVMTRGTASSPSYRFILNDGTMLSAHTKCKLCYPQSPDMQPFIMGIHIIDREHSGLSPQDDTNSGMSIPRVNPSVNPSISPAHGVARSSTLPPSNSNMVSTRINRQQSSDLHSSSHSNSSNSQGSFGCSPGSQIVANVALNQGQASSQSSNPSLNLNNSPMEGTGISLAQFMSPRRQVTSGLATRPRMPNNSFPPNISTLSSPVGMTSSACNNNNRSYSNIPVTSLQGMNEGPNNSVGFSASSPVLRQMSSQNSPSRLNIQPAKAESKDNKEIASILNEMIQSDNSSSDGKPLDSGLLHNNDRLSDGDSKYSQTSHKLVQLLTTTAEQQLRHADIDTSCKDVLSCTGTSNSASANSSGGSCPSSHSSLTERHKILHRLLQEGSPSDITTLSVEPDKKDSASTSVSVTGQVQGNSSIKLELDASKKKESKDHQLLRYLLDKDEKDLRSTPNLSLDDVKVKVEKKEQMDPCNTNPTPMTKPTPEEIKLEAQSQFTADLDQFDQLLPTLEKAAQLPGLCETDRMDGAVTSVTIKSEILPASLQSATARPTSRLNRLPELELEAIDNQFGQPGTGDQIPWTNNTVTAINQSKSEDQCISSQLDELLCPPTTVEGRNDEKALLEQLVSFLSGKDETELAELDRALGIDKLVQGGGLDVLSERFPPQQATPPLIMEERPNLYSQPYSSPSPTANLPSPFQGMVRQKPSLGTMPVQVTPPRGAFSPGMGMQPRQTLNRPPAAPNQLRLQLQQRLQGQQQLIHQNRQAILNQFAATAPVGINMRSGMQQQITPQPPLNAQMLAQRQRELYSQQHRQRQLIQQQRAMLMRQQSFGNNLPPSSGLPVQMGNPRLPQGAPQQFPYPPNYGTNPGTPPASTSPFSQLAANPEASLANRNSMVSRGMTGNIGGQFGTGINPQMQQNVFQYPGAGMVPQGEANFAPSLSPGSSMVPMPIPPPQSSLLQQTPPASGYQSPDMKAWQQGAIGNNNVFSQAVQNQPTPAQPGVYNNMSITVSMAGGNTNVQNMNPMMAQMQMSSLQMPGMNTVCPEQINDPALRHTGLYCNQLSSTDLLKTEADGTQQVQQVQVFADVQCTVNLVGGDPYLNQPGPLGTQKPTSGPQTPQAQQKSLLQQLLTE

binding: binds
Substance: Nuclear receptor coactivator 1 (NCOA1) (from UniProt Q15788 1-1441)

— paper PMC4695159
